Test results: publication PMC9848282, “Antinociceptive activity of doliroside B” (Pharmaceutical Biology, 2023)

System: acetic acid-induced writhing in Kunming mice
Assay: Acetic acid-induced writhing test
Assay type: in vivo

SMILES: CN1CC[C@]23c4c5ccc(O)c4O[C@H]2[C@@H](O)C=C[C@H]3[C@H]1C5 [MOP, morphine]
- ED50 (Mus musculus, read-out: ED50 (median effective dose)): 0.22 mg/kg
- effect of NAL on the reduction of writhing number (mouse, in vivo): NAL removed the effect of morphine
